# Source: patent US8409814B2, “Sensor proteins and assay methods” (Life Technologies Corporation, priority 2006, dated 2013)
# Experiment: TR-FRET assay of Tb-PBP(Q201C)-Fl with phosphate or Phosphate Mop
# Format: binding
# Settings: for Emission ratio with phosphate: 100 nM sensor added to 200 uM phosphate; for Emission ratio with phosphate / Emission ratio with Mop: excited at 340 nm, emission at 520 nm and 495 nm; for Emission ratio with Mop: 100 nM sensor added to Phosphate Mop (0.8 mM 7-MEG, 4 U/mL PNPase, 1 mM MgCl2)
molecule,measurement,value
"Tb-PBP(Q201C)-Fl labeled with 7 parts Tb chelate: E. coli phosphate binding protein mutant Q201C labeled with fluorescein and 7 parts Tb chelate (protein, UniProt P0AG82 26-346, looked up, variant Q201C, fluorescein; Tb chelate (7 parts)) Phosphate-binding protein PstS: EASLTGAGATFPAPVYAKWADTYQKETGNKVNYQGIGSSGGVKQIIANTVDFGASDAPLSDEKLAQEGLFQFPTVIGGVVLAVNIPGLKSGELVLDGKTLGDIYLGKIKKWDDEAIAKLNPGLKLPSQNIAVVRRADGSGTSFVFTSYLAKVNEEWKNNVGTGSTVKWPIGLGGKGNDGIAAFVQRLPGAIGYVEYAYAKCNNLAYTKLISADGKPVSPTEENFANAAKGADWSKTFAQDLTNQKGEDAWPITSTTFILIHKDQKKPEQGTEVLKFFDWAYKTGAKQANDLDYASLPDSVVEQVRAAWKTNIKDSSGKPLY",Fold-change in signal (emission ratio with phosphate/ratio with Mop),2.77
same,Emission ratio with phosphate,.78
same,Emission ratio with Mop,.28
"Tb-PBP(Q201C)-Fl labeled with 20 parts Tb chelate: E. coli phosphate binding protein mutant Q201C labeled with fluorescein and 20 parts Tb chelate (protein, UniProt P0AG82 26-346, looked up, variant Q201C, fluorescein; Tb chelate (20 parts)) Phosphate-binding protein PstS: EASLTGAGATFPAPVYAKWADTYQKETGNKVNYQGIGSSGGVKQIIANTVDFGASDAPLSDEKLAQEGLFQFPTVIGGVVLAVNIPGLKSGELVLDGKTLGDIYLGKIKKWDDEAIAKLNPGLKLPSQNIAVVRRADGSGTSFVFTSYLAKVNEEWKNNVGTGSTVKWPIGLGGKGNDGIAAFVQRLPGAIGYVEYAYAKCNNLAYTKLISADGKPVSPTEENFANAAKGADWSKTFAQDLTNQKGEDAWPITSTTFILIHKDQKKPEQGTEVLKFFDWAYKTGAKQANDLDYASLPDSVVEQVRAAWKTNIKDSSGKPLY",Fold-change in signal (emission ratio with phosphate/ratio with Mop),2.48
same,Emission ratio with phosphate,.85
same,Emission ratio with Mop,.34
"Tb-PBP(Q201C)-Fl labeled with 10 parts Tb chelate: E. coli phosphate binding protein mutant Q201C labeled with fluorescein and 10 parts Tb chelate (protein, UniProt P0AG82 26-346, looked up, variant Q201C, fluorescein; Tb chelate (10 parts)) Phosphate-binding protein PstS: EASLTGAGATFPAPVYAKWADTYQKETGNKVNYQGIGSSGGVKQIIANTVDFGASDAPLSDEKLAQEGLFQFPTVIGGVVLAVNIPGLKSGELVLDGKTLGDIYLGKIKKWDDEAIAKLNPGLKLPSQNIAVVRRADGSGTSFVFTSYLAKVNEEWKNNVGTGSTVKWPIGLGGKGNDGIAAFVQRLPGAIGYVEYAYAKCNNLAYTKLISADGKPVSPTEENFANAAKGADWSKTFAQDLTNQKGEDAWPITSTTFILIHKDQKKPEQGTEVLKFFDWAYKTGAKQANDLDYASLPDSVVEQVRAAWKTNIKDSSGKPLY",Fold-change in signal (emission ratio with phosphate/ratio with Mop),2.65
same,Emission ratio with phosphate,.83
same,Emission ratio with Mop,.31
"Tb-PBP(Q201C)-Fl labeled with 3 parts Tb chelate: E. coli phosphate binding protein mutant Q201C labeled with fluorescein and 3 parts Tb chelate (protein, UniProt P0AG82 26-346, looked up, variant Q201C, fluorescein; Tb chelate (3 parts)) Phosphate-binding protein PstS: EASLTGAGATFPAPVYAKWADTYQKETGNKVNYQGIGSSGGVKQIIANTVDFGASDAPLSDEKLAQEGLFQFPTVIGGVVLAVNIPGLKSGELVLDGKTLGDIYLGKIKKWDDEAIAKLNPGLKLPSQNIAVVRRADGSGTSFVFTSYLAKVNEEWKNNVGTGSTVKWPIGLGGKGNDGIAAFVQRLPGAIGYVEYAYAKCNNLAYTKLISADGKPVSPTEENFANAAKGADWSKTFAQDLTNQKGEDAWPITSTTFILIHKDQKKPEQGTEVLKFFDWAYKTGAKQANDLDYASLPDSVVEQVRAAWKTNIKDSSGKPLY",Fold-change in signal (emission ratio with phosphate/ratio with Mop),3.06
same,Emission ratio with phosphate,.72
same,Emission ratio with Mop,.23
